Measured values published in patent US5223526A, “Pyrazole carboxanilide fungicides and use” (Monsanto Company, priority 1992, dated 1993).
Some results were stated once for a whole list of compounds, not compound by compound.

Test system: Botrytis
Assay: Field tests, vineyards
Assay type: in vivo
Conditions: 0.01 to 2.0 kg active ingredient per hectare

Row | Structure (SMILES) | incidence of Botrytis compared to untreated fields
1 | C[C@@H]1CCC[C@H](C)[C@H]1Oc1ccccc1NC(=O)c1cn(C)nc1C(F)(F)F [Example 76, 1H-pyrazole-4-Carboxamide, 1 methyl-N-[2-[(2,6-dimethylcyclohexyl)oxy]phenyl]-3-(trifluoromethyl)-, (1alpha,2beta,6beta)-] | reduce the incidence of Botrytis compared to untreated fields
2 | CCC1CCCC(C)=C1c1ccccc1NC(=O)c1cn(C)nc1C(F)(F)F (stereo not shown) [Example 138, 1H-pyrazole-4-carboxamide, N-[2-(6-ethyl-2-methyl-1-cyclohexen-1-yl)phenyl]-1-methyl-3-(trifluoromethyl)-] | reduce the incidence of Botrytis compared to untreated fields
3 | CC1CC=C(c2ccccc2NC(=O)c2cn(C)nc2C(F)(F)F)C1 (stereo not shown) [Example 150, 1H-pyrazole-4-carboxamide, N-[2-(4-methyl-1-cyclopenten-1-yl)phenyl]-1-methyl-3-(trifluoromethyl)-] | reduce the incidence of Botrytis compared to untreated fields
4 | Cn1cc(C(=O)Nc2ccccc2CC2=CCCC2)c(C(F)F)n1 [Example 117, 1H-pyrazole-4-carboxamide, N-[2-(1-cyclopenten-1-ylmethyl)phenyl]-3-(difluoromethyl)-1-methyl-] | reduce the incidence of Botrytis compared to untreated fields
5 | Cn1cc(C(=O)Nc2ccccc2C2CCCCCC2)c(I)n1 [Example 57, 1H-pyrazole-4-carboxamide, N-[2-(cycloheptyl)phenyl]-3-iodo-1-methyl-] | reduce the incidence of Botrytis compared to untreated fields
6 | Cn1cc(C(=O)Nc2ccccc2[C@@H]2C[C@H]3CC[C@@H]2C3)c(C(F)(F)F)n1 (relative stereo) [Example 27, 1H-pyrazole-4-carboxamide, N-(2-bicyclo[2.2.1]hept-2-ylphenyl)-1-methyl-3-(trifluoromethyl)-, exo-] | reduce the incidence of Botrytis compared to untreated fields
7 | Cn1cc(C(=O)Nc2ccc(F)cc2C2CCCCC2)c(C(F)(F)F)n1 [Example 12, 1H-pyrazole-4 carboxamide, N-(2-cyclohexyl-4-fluorophenyl)-1-methyl-3-(trifluoromethyl)-] | reduce the incidence of Botrytis compared to untreated fields
8 | Cn1cc(C(=O)Nc2ccccc2C2(C)CCCC2)c(C(F)F)n1 [Example 83, 1H-pyrazole-4-carboxamide, 3-(difluoromethyl)-1-methyl-N-[2-(1-methylcyclopentyl)phenyl]-] | reduce the incidence of Botrytis compared to untreated fields
9 | Cc1c(C(=O)Nc2ccccc2C2CCCC2)c(C(F)(F)F)nn1C [Example 101, 1H-pyrazole-4-carboxamide, N-(2-cyclopentylphenyl)-1,5-dimethyl-3-(trifluoromethyl)-] | reduce the incidence of Botrytis compared to untreated fields
10 | O=C(Nc1ccccc1C1CCCCC1)c1c[nH]nc1C(F)F [Example 15, 1H-pyrazole-4-carboxamide, N-(2-cyclohexylphenyl)-3-(difluoromethyl)-] | reduce the incidence of Botrytis compared to untreated fields
11 | Cn1cc(C(=O)Nc2ccc(F)cc2C2(C)CCCCC2)c(C(F)(F)F)n1 [Example 98, 1H-pyrazole-4-carboxamide, N-[4-fluoro-2-(1-methylcyclohexyl)-phenyl]-1-methyl-3-(trifluoromethyl)-] | reduce the incidence of Botrytis compared to untreated fields
12 | Cc1cc(C)c(C2CCCC2)c(NC(=O)c2cn(C)nc2C(F)(F)F)c1 [Example 31, 1H-pyrazole-4-carboxamide, N-(2-cyclopentyl-3,5-dimethylphenyl)-1-methyl-3-(trifluoromethyl)-] | reduce the incidence of Botrytis compared to untreated fields
13 | CC(=C1CCCC1)c1ccccc1NC(=O)c1cn(C)nc1C(F)(F)F [Example 33, 1H-pyrazole-4-carboxamide, N-[2-(1-cyclopentylideneethyl)phenyl]-1-methyl-3-(trifluoromethyl)-] | reduce the incidence of Botrytis compared to untreated fields
14 | C[C@@H]1CCC[C@H](c2ccccc2NC(=O)c2cn(C)nc2C(F)(F)F)C1 (relative stereo) [Example 79, 1H-pyrazole-4-carboxamide, 1-methyl-N-[2-(3-methylcyclohexyl)phenyl]-3-(trifluoromethyl)-, cis-] | reduce the incidence of Botrytis compared to untreated fields
15 | Cn1cc(C(=O)Nc2ccccc2C2=CCCCCC2)c(C(F)F)n1 [Example 111, 1H-pyrazole-4-carboxamide, N-[2-(1-cyclohepten-1-yl)phenyl]-3-(difluoromethyl)-1-methyl-] | reduce the incidence of Botrytis compared to untreated fields
16 | Cn1cc(C(=O)Nc2ccccc2O[C@H]2CC[C@H](C)CC2)c(C(F)(F)F)n1 [Example 73, 1H-pyrazole-4-carboxamide, 1-methyl-N-[2-[(4-methylcyclohexyl)oxy]phenyl]-3-(trifluoromethyl)-, trans-] | reduce the incidence of Botrytis compared to untreated fields
17 | Cn1cc(C(=O)Nc2cc(Cl)ccc2C2CCCCC2)c(C(F)(F)F)n1 [Example 94, 1H-pyrazole-4-carboxamide, N-(5-chloro-2-cyclohexylphenyl)-1-methyl-3-(trifluoromethyl)-] | reduce the incidence of Botrytis compared to untreated fields
18 | Cn1cc(C(=O)Nc2ccccc2[C@@H]2C[C@H]3CC[C@@H]2C3)c(I)n1 (relative stereo) [Example 58, 1H-pyrazole-4-carboxamide, N-(2-bicyclo[2.2.1]hept-2-ylphenyl)-3-iodo-1-methyl-, exo-] | reduce the incidence of Botrytis compared to untreated fields
19 | CC1CC=C(c2ccccc2NC(=O)c2cn(C)nc2C(F)F)C1 (stereo not shown) [Example 149, 1H-pyrazole-4-carboxamide, N-[2-(4-methyl-1-cyclopenten-1-yl)phenyl]-1-methyl-3-(difluoromethyl)-] | reduce the incidence of Botrytis compared to untreated fields
20 | Cn1cc(C(=O)Nc2ccccc2OCC2CCC2)c(C(F)(F)F)n1 [Example 43, 1H-pyrazole-4-carboxamide, N-[2-(cyclobutylmethoxy)phenyl]-1-methyl-3-(trifluoromethyl)-] | reduce the incidence of Botrytis compared to untreated fields
21 | COc1cccc(NC(=O)c2cn(C)nc2C(F)(F)F)c1C1CCCCCCC1 [Example 37, 1H-pyrazole-4-carboxamide, N-(2-cyclooctyl-3-methoxyphenyl)-1-methyl-3-(trifluoromethyl)-] | reduce the incidence of Botrytis compared to untreated fields
22 | Cc1ccc(NC(=O)c2cn(C)nc2C(F)F)c(C2CCCCC2)c1 [Example 28, 1H-pyrazole-4-carboxamide, N-(2-cyclohexyl-4-methylphenyl)-3-(difluoromethyl)-1-methyl-] | reduce the incidence of Botrytis compared to untreated fields
